Laboratory results reported in patent publication US7432342B2 (Sequenom, Inc., priority 2002, dated 2008).

Assay: general procedure: Fmoc SPOT synthesis; amino functionalized cellulose membrane
Settings: whole synthesis

biotin-bA-bA-VQGNTDEAQEELAWKIAKMIVSDIMQQ
final HPLC purity: 96%
